Reference: US11180498B2, “Substituted pyrrolo[2,3-b]pyridines, pyrazolo[3,4-d]pyrimidines and [1,2,3]triazolo[4,5-b]pyridines as potent antivirals” (The Regents of the University of California, priority 2017, dated 2021)
Some results were stated once for a whole list of compounds, not compound by compound.

Each molecule was assayed on Enterovirus D68 (assay: Antiviral cell-based assays, summary for at least one strain). Conditions: same strain as EC50 less than 1 μM; CC50/EC50.
Experimental: Cells growing in 96 well plates are infected with a given virus at given low multiplicities of infection pre-determined to result in 100% cytopathic effects (CPE) in the cultures after 3-4 days incubation. Cultures are monitored daily for microscopic signs of typical CPE: rounding of cells and detachment. […] Dead cells and debris are washed out and the remaining blue stain intensity in each well is quantified by spectrophotometry at a wavelength of 590 nm (OD590) as a measurement of viability. […] Serial 2-fold dilutions of an active compound are prepared. […] Table 4 provides the results of cell-based assays with RD cells evaluating the antiviral activities of certain representative compounds of the present technology with certain strains of Enterovirus D68, namely strains Fermon (“D68/Fermon”), US/Mo/14-18949 (“D68/US/Mo/14-18949”), and US/KY/14-18953 (“D68/US/KY/14-18953”). The values indicated in the strain columns are EC50 values in μM units. The CC50 values (in μM units) for RD cells are also provided for evaluation of SI50.
In the case of `CC(C)n1ccc2c(C(=O)Nc3ccc(F)cc3)cc(-c3cccs3)nc21` [JX-037], the SI is reported as “greater than 25”. With `CC(C)n1ccc2c(C(=O)Nc3ccccn3)cc(-c3cccs3)nc21` [JX-072] the SI was “greater than 25”. For `CC(C)n1ccc2c(C(=O)Nc3cccnc3)cc(-c3cccs3)nc21` [JX-062], the SI was “greater than 25”.
